Data taken from PubChem BioAssay AID248 (DTP/NCI, 2004).
The list is a part of this screen's results and no random one: it gathers tests that were run many times, whatever their T/C, doses with no T/C, and many T/C values between a quarter and a half above the control. Other doses and runs of a compound stand elsewhere. T/C: endpoint of the treated group in % of that of the vehicle group. Some doses have a count of surviving animals in place of a T/C: the source files T/C as zero there, which appears to mark a toxic dose or a test without result, not a measured value. Some survivor counts are full or nearly so, which does not show that the dose was tolerated: the source hardly ever lists a survival T/C far under the control, and the zero likely stands for such cases as well. Survivors were counted at the toxicity check, usually on the fifth day, unless a day is given; later deaths do not show. Schedule codes are those of the source, read here as Q, the interval in days (D) or hours (H), X, the number of doses. Some entries hold several experiments; their values stand side by side, smallest first. Some schedules carry Z or #; the key to these is not given. For survival time, the PubChem record calls one and a half times the control and up active, and a quarter to a half above the control has no call in these data; cut-offs in other NCI protocols can differ. Some T/C values carry the count of animals alive at the toxicity check (mostly the fifth day); where none is given, no animal had died by that day.

System: L1210 leukemia ip in BDF1 mice, survival T/C
Experiment: NCI In Vivo Anticancer Drug Screen. Data for tumor model L1210 Leukemia (intraperitoneal) in B6D2F1 (BDF1) mice
Conditions: T/C endpoint: mean survival time, higher T/C = longer survival
[1] = dose: 400.0 mg/kg/injection, schedule: Q04DX003 (ip), vehicle: saline
[2] = dose: 400.0 mg/kg/injection, schedule: Q01DX001 (ip), vehicle: carboxymethylcellulose (CMC)
[3] = dose: 600.0 mg/kg/injection, schedule: Q01DX001 (ip), vehicle: carboxymethylcellulose (CMC)
[4] = dose: 400.0 mg/kg/injection, schedule: Q01DX001 (ip), vehicle: saline
[5] = dose: 200.0 mg/kg/injection, schedule: Q04DX003 (ip), vehicle: saline with Tween-80
[6] = dose: 400.0 mg/kg/injection, schedule: Q04DX003 (ip), vehicle: saline with Tween-80
[7] = dose: 400.0 mg/kg/injection, schedule: Q01DX009 (ip), vehicle: saline with Tween-80
[8] = dose: 400.0 mg/kg/injection, schedule: Q04DX003 (ip), vehicle: Klucel (hydroxypropylcellulose) (HPC)
[9] = dose: 300.0 mg/kg/injection, schedule: Q01DX001 (ip), vehicle: saline
[10] = dose: 400.0 mg/kg/injection, schedule: Q01DX009 (ip), vehicle: Klucel (hydroxypropylcellulose) (HPC)
[11] = dose: 480.0 mg/kg/injection, schedule: Q01DX Z (oral), vehicle: saline

CN1CCC=C(CN(c2ccccc2)c2ccccc2)C1
survivor count (dose: 200.0 mg/kg/injection, schedule: Q04DX003 (ip), vehicle: saline): 1 of 6
survivor count [1]: 0 of 6

Cc1ccc(NC(=O)N(CCCCl)N=O)cc1
survivor count (dose: 200.0 mg/kg/injection, schedule: Q01DX009 (ip), vehicle: carboxymethylcellulose (CMC)): 6 of 6
T/C (dose: 266.0 mg/kg/injection, schedule: Q01DX001 (ip), vehicle: carboxymethylcellulose (CMC)): 136 % of control
T/C [2]: 137 % of control
survivor count [3]: 0 of 6

C=CCc1c2c(ccc(=O)c1O)-c1c(cc(OC)c(OC)c1OC)CCC2NC(C)=O (stereo not given)
T/C [2]: 130 % of control [3 of 4 alive]
survivor count [2]: 2 of 4
survivor count [3]: 1 of 4 and 2 of 4

CC12CCC(=O)C=C1CCCC2=O (stereo not given)
survivor count [1]: 0 of 6

CCCN(CCC)C(=O)CCl
survivor count [4]: 0 of 4

C/C(=C/c1c(C)[nH]c(=O)[nH]c1=O)C(=O)O
survivor count (dose: 400.0 mg/kg/injection, schedule: Q01DX009 (ip), vehicle: saline): 5 of 6

Cc1cc(C)c(S(=O)(=O)Cc2cc(Cl)cc(Cl)c2O)c(C)c1
survivor count [4]: 6 of 6

N#CC1C(=O)c2ccccc2C1=O
survivor count [5]: 3 of 6
survivor count [6]: 0 of 6

O=[N+]([O-])c1ccc(-[n+]2ccccc2)c([N+](=O)[O-])c1
survivor count (dose: 225.0 mg/kg/injection, schedule: Q01DX009 (ip), vehicle: saline): 2 of 6
survivor count (dose: 335.0 mg/kg/injection, schedule: Q01DX009 (ip), vehicle: saline): 0 of 6

Nc1ccn(C2OC(CO)C(OP(=O)(O)O)C2O)c(=O)n1 (stereo not given)
survivor count (dose: 160.0 mg/kg/injection, schedule: Q01DX001 (ip), vehicle: water): 6 of 10
survivor count (dose: 320.0 mg/kg/injection, schedule: Q01DX001 (ip), vehicle: water): 2 of 10

O=C(Cn1cnc2c(=S)nc[nH]c21)Oc1ccc([N+](=O)[O-])cc1
survivor count (dose: 200.0 mg/kg/injection, schedule: Q01DX009 (ip), vehicle: saline with Tween-80): 5 of 6
survivor count [7]: 0 of 6

[B-][N+]12CC[N+]([B-])(CC1)CC2
survivor count (dose: 0.5 mg/kg/injection, schedule: Q04DX003 (ip), vehicle: saline): 0 of 6
survivor count (dose: 1.0 mg/kg/injection, schedule: Q04DX003 (ip), vehicle: saline): 3 of 6
survivor count (dose: 2.0 mg/kg/injection, schedule: Q04DX003 (ip), vehicle: saline): 0 of 6
survivor count (dose: 6.25 mg/kg/injection, schedule: Q04DX003 (ip), vehicle: Klucel (hydroxypropylcellulose) (HPC)): 0 of 6
survivor count (dose: 12.5 mg/kg/injection, schedule: Q04DX003 (ip), vehicle: Klucel (hydroxypropylcellulose) (HPC)): 0 of 6
survivor count (dose: 25.0 mg/kg/injection, schedule: Q04DX003 (ip), vehicle: Klucel (hydroxypropylcellulose) (HPC)): 0 of 6
survivor count (dose: 100.0 mg/kg/injection, schedule: Q04DX003 (ip), vehicle: Klucel (hydroxypropylcellulose) (HPC)): 0 of 6
survivor count (dose: 200.0 mg/kg/injection, schedule: Q04DX003 (ip), vehicle: Klucel (hydroxypropylcellulose) (HPC)): 0 of 6
survivor count [8]: 0 of 6

O=NN(CCCl)C(=O)NC(CCC(=O)O)C(=O)O (stereo not given)
T/C (dose: 20.0 mg/kg/injection, schedule: Q01DX001 (ip), vehicle: saline with Tween-80): 128 % of control
T/C (dose: 30.0 mg/kg/injection, schedule: Q01DX001 (ip), vehicle: saline with Tween-80): 132 % of control
T/C (dose: 44.0 mg/kg/injection, schedule: Q01DX001 (ip), vehicle: saline with Tween-80): 142 % of control

CC1([N+](=O)[O-])COP(=O)(Nc2ccc(F)cc2)OC1 (stereo not given)
survivor count [2]: 0 of 4

Cc1c[n+](Cc2ccccc2)cc(C)n1
survivor count [9]: 0 of 6

c1ccc([Si](OO[Si](c2ccccc2)(c2ccccc2)c2ccccc2)(c2ccccc2)c2ccccc2)cc1
survivor count [7]: 6 of 6

Cc1cc(C)nc(N)c1
survivor count (dose: 50.0 mg/kg/injection, schedule: Q04DX002 (ip), vehicle: saline): 0 of 3
survivor count (dose: 100.0 mg/kg/injection, schedule: Q04DX002 (ip), vehicle: saline): 0 of 3
survivor count (dose: 200.0 mg/kg/injection, schedule: Q04DX002 (ip), vehicle: saline): 0 of 3
survivor count (dose: 400.0 mg/kg/injection, schedule: Q04DX002 (ip), vehicle: saline): 0 of 3

CCCC(C)OS(=O)(=O)c1ccc(N)cc1 (stereo not given)
survivor count [10]: 5 of 6

C=CCOC(=O)c1ccco1
survivor count (dose: 200.0 mg/kg/injection, schedule: Q01DX009 (ip), vehicle: Klucel (hydroxypropylcellulose) (HPC)): 3 of 6
survivor count [10]: 0 of 6

O=[N+]([O-])c1cc([N+](=O)[O-])c(NN(c2ccccc2)c2ccccc2)c([N+](=O)[O-])c1
survivor count (dose: 50.0 mg/kg/injection, schedule: Q01DX Z (ip), vehicle: other): 2 of 6
survivor count (dose: 75.0 mg/kg/injection, schedule: Q01DX Z (ip), vehicle: other): 0 of 6

CCOC(=O)c1csc(/C=C/c2ccc([N+](=O)[O-])o2)n1
survivor count [8]: 0 of 6

CC(=O)OC1CC2(O)C(CCC3(C)C(c4ccc(=O)oc4)CCC32O)C2(C)CCC(OC3OC(CO)C(O)C(O)C3O)C=C12 (stereo not given)
survivor count (dose: 0.64 mg/kg/injection, schedule: Q01DX015 (sc), vehicle: steroid suspending solution): 0 of 6
survivor count (dose: 1.28 mg/kg/injection, schedule: Q01DX015 (sc), vehicle: steroid suspending solution): 0 of 6
survivor count (dose: 2.56 mg/kg/injection, schedule: Q01DX015 (sc), vehicle: steroid suspending solution): 0 of 6

Cn1c(N)c(N=O)c(=O)n(C)c1=O
survivor count (dose: 720.0 mg/kg/injection, schedule: Q01DX009 (ip), vehicle: saline with Tween-80): 1 of 6
survivor count (dose: 1440.0 mg/kg/injection, schedule: Q04DX003 (ip), vehicle: saline with Tween-80): 2 of 6
survivor count (dose: 2880.0 mg/kg/injection, schedule: Q04DX003 (ip), vehicle: saline with Tween-80): 0 of 6

CCOC(=O)Nc1cc(Cl)c([N+](=O)[O-])c(NC(=O)OCC)n1
survivor count (dose: 400.0 mg/kg/injection, schedule: Q01DX001 (ip), vehicle: other): 1 of 4

O[C@@H]1CCC[C@H]1n1cnc2c(=S)nc[nH]c21
T/C (dose: 100.0 mg/kg/injection, schedule: Q04DX003 (ip), vehicle: saline with Tween-80): 129 % of control
T/C [5]: 138 and 141 % of control
T/C (dose: 300.0 mg/kg/injection, schedule: Q04DX003 (ip), vehicle: saline with Tween-80): 141 % of control
T/C [6]: 130 % of control

CC(=O)OI(OC(C)=O)c1ccc(-c2ccccc2)cc1
survivor count [10]: 6 of 6

CNC1(C(N)=O)CCN(Cc2ccccc2)CC1
survivor count [6]: 3 of 6

NC(N)=N/N=C/c1cc([N+](=O)[O-])ccc1O
survivor count (dose: 240.0 mg/kg/injection, schedule: Q01DX Z (oral), vehicle: saline): 2 of 6
survivor count [11]: 1 of 6

CC/C=C(\C)C1(CC)C(=O)N=C(N)NC1=O (stereo not given)
survivor count [9]: 1 of 6

CC(C)/C=N/N=C(N)N
survivor count [11]: 3 of 6
survivor count (dose: 960.0 mg/kg/injection, schedule: Q01DX Z (oral), vehicle: saline): 2 of 6

CCCCCCCCCCCCOc1ccc(C(=O)CC(=O)OCC)cc1
survivor count (dose: 100.0 mg/kg/injection, schedule: Q04DX003 (ip), vehicle: saline): 6 of 6

OC1(C#CC2(O)CCCCC2)CCCCC1
survivor count [8]: 6 of 6

O=NN(C(=O)NC1CCCCC1)C1CCCCC1
survivor count [3]: 3 of 6
survivor count (dose: 800.0 mg/kg/injection, schedule: Q01DX001 (ip), vehicle: carboxymethylcellulose (CMC)): 3 of 6
survivor count (dose: 1000.0 mg/kg/injection, schedule: Q01DX001 (ip), vehicle: carboxymethylcellulose (CMC)): 0 of 6

CC(=O)C1CCC2C3CC=C4CC(O)CCC4(C)C3CCC12C (stereo not given)
survivor count [8]: 5 of 6
